Assay results: article PMC9606263, “Polerovirus N-terminal readthrough domain structures reveal molecular strategies for mitigating virus transmission by aphids” (Nature Communications, 2022)
Results are given in words; binding and its absence hold for the method and conditions named. Some results given as binding are weak or reduced against the parent protein; the word gives no strength.

Biological target: Selenomethionine-labeled PLRV NRTD (residues 230-458) (potato leafroll virus) (UniProt P17525)
Experiment: crystal structure; SeMet PLRV NRTD at 6 mg/ml, sitting drop, 20 °C, 0.1 M Tris-HCl pH 8.5, 0.25 M ammonium sulfate, 14% PEG 8000, 3% ethylene glycol, 5 mM DTT; dimer in the asymmetric unit; both purified

B1: Selenomethionine-labeled PLRV NRTD (residues 230-458) (domain or fragment, UniProt P17525 230-458)
chain: HERFIAYVGIPMLTIQARENDDQIILGSLGSQRMKYIEDENQNYTKFSSEYYSQSSMQAVPMYYFNVPKGQWSVDISCEGYQPTSSTSDPNRGRSDGMIAYSNADSDYWNVGEADGVKISKLRNDNTYRQGHPELEINSCHFREGQLLERDATISFHVEAPTDGRFFLVGPAIQKTAKYNYTISYGDWTDRDMELGLITVVLDEHLEGTGSANRVRRPPREGHTYMASP
modifications: selenomethionine in place of methionine
For B1, the binding was “binds”.
